PubChem BioAssay AID504764 | Drosophila RNAi Screening Center, 2011

- Assay: 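Genome-wide screen for regulators of Notch-driven gene expression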 (primary screen)
- Cell system: Drosophila Kc167 cells
- Reagent: long dsRNA against Drosophila genes
- Duration: about 5 days (4 days dsRNA, then 24 h after transfection)
- Conditions: transfection of constitutively active membrane-tethered Notch lacking the extracellular domain, read 24 h later
- Detection: 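Firefly luciferase from an E(spl)m3 reporter with active Notch, plus control-promoter and uninduced reporter wells for normalisation; unnormalised counts, duplicate wells a and b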
- Direction: induced reporter light, run 1, well a and induced reporter light, run 1, well b: higher = more light from the Notch target reporter with active Notch; control promoter light, run 1, well a and control promoter light, run 1, well b: higher = more light from the viral control promoter (cell number, transfection, viability); uninduced reporter light, run 1, well a: higher = more light from the Notch target reporter without active Notch
- Call rule: 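Hit if the duplicate-averaged log2 ratio of induced to control-promoter light gives a plate-wise z beyond ±2, or induced to uninduced beyond ±1.8; weak-control or discordant-duplicate wells dropped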
- Calls: active = modifier hit (raised or lowered Notch signal); inactive = not a hit
The deposit covers about 22,000 reagents; this is an unselected part of those with a known target gene and a result. Over the whole deposit, 403 (1.9%) are marked active. 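Unnormalised raw counts per well; ratio z-scores behind the hit calls and whether each hit raises or lowers signal are not deposited.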 Unmarked entries are inactive. No sequences are given here. The record does not give: the amount of reagent.

gene | dsRNA | induced reporter light, run 1, well a | induced reporter light, run 1, well b | control promoter light, run 1, well a | control promoter light, run 1, well b | uninduced reporter light, run 1, well a
blow | DRSC07586 | 2.37e5 | 2.14e5 | 2.53e5 | 2.43e5 | 17145
CG12811 | DRSC14549 | 92330 | 93920 | 97945 | 81590 | 4540
CG14079 | DRSC10083 | 1.12e5 | 84240 | 1.19e5 | 1.10e5 | 7690
CG15043 | DRSC19619 | 74505 | 67570 | 93360 | 83035 | 10590
ord | DRSC04706 | 2.22e5 | 2.32e5 | 2.47e5 | 2.41e5 | 17700
CG34375 | DRSC14684 | 1.68e5 | 1.72e5 | 2.33e5 | 2.35e5 | 16855
CG34375 | DRSC14685 | 95145 | 1.00e5 | 99380 | 1.09e5 | 11300
CG11035 | DRSC14287 | 1.23e5 | 1.18e5 | 80300 | 77120 | 9620
Mhcl | DRSC13130 | 1.39e5 | 1.39e5 | 2.22e5 | 2.24e5 | 10792
Mhcl | DRSC14216 | 2.23e5 | 2.35e5 | 2.35e5 | 2.62e5 | 17938
Mhcl | DRSC16753 | 1.92e5 | 1.81e5 | 2.29e5 | 2.03e5 | 15380
CG34007 | DRSC01790 | 76960 | 81735 | 75075 | 87425 | 9535
CG6432 | DRSC16039 | 1.41e5 | 1.72e5 | 2.06e5 | 2.22e5 | 13940
Gdh | DRSC16679 | 1.01e5 (active) | 1.44e5 | 2.23e5 | 2.60e5 | 12110
CG33178 | DRSC19950 | 1.49e5 | 1.13e5 | 1.11e5 | 97385 | 12820
CG9168 | DRSC08633 | 1.69e5 | 1.53e5 | 2.51e5 | 1.54e5 | 9260
Mst98Cb | DRSC16750 | 1.85e5 | 1.73e5 | 2.51e5 | 2.28e5 | 14705
CG13516 | DRSC04159 | 2.31e5 | 1.71e5 | 2.00e5 | 1.46e5 | 11515
Ugt35A1 | DRSC16892 | 1.24e5 | 1.36e5 | 1.01e5 | 87395 | 10055
CG17806 | DRSC15276 | 2.08e5 | 2.49e5 | 2.51e5 | 3.55e5 | 17850

2 entries from above, reduced to “uninduced reporter light, run 1, well a”.
CG9168 [DRSC08633]	9260
Mst98Cb [DRSC16750]	14705
